Legend:
Type in all cases: cell-based
Settings in all cases: 20 ul specimen on TSA agar lawn, 37° C., 5% CO2, read at 24 and 48 h; CPC 0.05%, CHX 0.1%, acids 1% (wt. %)
[1] = tested on: Actinomyces viscosus (AV); test: Zones of inhibition of growth on TSA agar plates, Actinomyces viscosus (AV)
Experimental: (§1) This study was conducted to determine whether anti-calculus agents inhibit the antimicrobial activity of cetyl pyridium chloride […] and chlorhexidine (CHX).
(§2) Experimental Design: TSA agar plates were individually swabbed with fresh 24 h broth cultures of Streptococcus mutans (TH16), Streptococcus parasanguis (FW213) and Actinomyces viscosus (AV) to provide a confluent lawn of bacterial growth. Five minutes after swabbing the plates (to allow the inoculum to absorb into the agar), 20 ul of each test specimen (see below) was placed onto designated places on the plates and allowed to absorb into the agar. The plates were incubated agar-side up at 37° C. in 5% CO2 for 48 h. Plates were examined at 24 and 48 h for zones of inhibition of growth for each bacterial species. The diameter of each zone was measured in mm. The zones of inhibition of each mixture (anti-calculus and antimicrobial agents) were compared to the zones of each agent separately. If the zones of the mixtures were the same size (or larger) than the inhibition zones from the antimicrobial agent alone then there was no inhibition of antimicrobial activity by the anti-calculus agent.
(§3) Test Specimens: There were 12 different samples/test specimens used in this experiment. […]

[2] = tested on: Streptococcus parasanguis (FW213); test: Zones of inhibition of growth on TSA agar plates, Streptococcus parasanguis (FW213)
Experimental: as §1, §2, §3

[3] = tested on: Streptococcus mutans (TH16); test: Zones of inhibition of growth on TSA agar plates, Streptococcus mutans (TH16)
Experimental: as §1, §2, §3

CCCCCCCCCCCCCCCC[n+]1ccccc1 [CPC alone, cetyl pyridinium chloride]
Zones of Inhibition of Growth, AV [1]: 14 mm
Zones of Inhibition of Growth, FW213 [2]: 9 mm
Zones of Inhibition of Growth, TH16 [3]: 7 mm

From patent US20070081951A1, “Prevention of dental plaque and dental calculus in animals” (priority 2005, published 2007)
